Reference: publication PMC11040352 (Advanced Science, 2024)
Some peptides are written in HELM: one residue between dots, names in brackets for other building blocks, links after the first $.

Assay: general procedure: Fmoc solid-phase peptide synthesis; Rink Amide resin; Oxyma/DIC; HBTU/HOBT/DIPEA for PEG linker

Substance	cyclisation yield (cyclisation step, on linear precursor, bicyclic, sequence written open) [%]	conjugation yield (conjugation step) [%]
NH2‐PEG3‐ACVPCADFPIWYC‐NH2	37	
PEPTIDE1{[NOTA].[PEG3].A.C.V.P.C.A.D.F.P.I.W.Y.C.[am]}|CHEM1{[TBMB]}$PEPTIDE1,CHEM1,4:R3-1:R1|PEPTIDE1,CHEM1,7:R3-1:R2|PEPTIDE1,CHEM1,15:R3-1:R3$$$V2.0		52
